Reference: the supplement of paper PMC10849652
The other results are listed elsewhere or left out.

Sequences of proteins named here, by UniProt entry; tags and fusion partners are left off. A change or cut given only in a name is not applied to a line headed by its entry.
UniProt Q6NXR4: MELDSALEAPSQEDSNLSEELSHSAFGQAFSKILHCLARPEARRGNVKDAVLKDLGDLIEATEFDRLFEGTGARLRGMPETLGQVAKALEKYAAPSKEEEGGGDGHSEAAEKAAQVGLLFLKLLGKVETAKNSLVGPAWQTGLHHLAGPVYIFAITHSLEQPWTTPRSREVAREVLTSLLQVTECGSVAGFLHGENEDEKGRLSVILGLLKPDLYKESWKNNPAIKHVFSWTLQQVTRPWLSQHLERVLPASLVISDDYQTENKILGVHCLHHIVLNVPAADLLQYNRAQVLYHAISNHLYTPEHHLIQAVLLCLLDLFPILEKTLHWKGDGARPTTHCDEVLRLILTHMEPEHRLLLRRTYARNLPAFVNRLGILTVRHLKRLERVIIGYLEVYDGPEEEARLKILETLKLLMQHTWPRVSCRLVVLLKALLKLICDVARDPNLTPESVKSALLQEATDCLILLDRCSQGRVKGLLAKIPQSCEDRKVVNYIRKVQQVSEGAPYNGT
UniProt Q9BVA1, whole entry, looked up: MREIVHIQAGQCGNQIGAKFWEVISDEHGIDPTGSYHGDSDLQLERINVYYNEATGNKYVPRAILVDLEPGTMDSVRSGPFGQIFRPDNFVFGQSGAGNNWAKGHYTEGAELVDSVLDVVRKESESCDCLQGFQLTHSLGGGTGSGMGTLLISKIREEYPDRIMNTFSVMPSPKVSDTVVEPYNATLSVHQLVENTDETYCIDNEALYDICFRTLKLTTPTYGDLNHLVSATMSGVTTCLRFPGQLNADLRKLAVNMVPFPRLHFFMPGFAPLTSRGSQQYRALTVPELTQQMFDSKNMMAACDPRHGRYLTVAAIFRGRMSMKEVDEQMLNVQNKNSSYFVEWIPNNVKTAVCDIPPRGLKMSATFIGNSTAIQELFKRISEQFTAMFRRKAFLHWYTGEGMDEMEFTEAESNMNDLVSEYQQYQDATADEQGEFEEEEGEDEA
UniProt Q5BVD1: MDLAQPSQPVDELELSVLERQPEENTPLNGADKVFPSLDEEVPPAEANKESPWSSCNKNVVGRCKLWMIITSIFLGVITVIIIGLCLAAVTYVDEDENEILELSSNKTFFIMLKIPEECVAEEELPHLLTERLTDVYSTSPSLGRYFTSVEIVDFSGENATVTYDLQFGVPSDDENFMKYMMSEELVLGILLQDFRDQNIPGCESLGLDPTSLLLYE
UniProt Q9BRA2: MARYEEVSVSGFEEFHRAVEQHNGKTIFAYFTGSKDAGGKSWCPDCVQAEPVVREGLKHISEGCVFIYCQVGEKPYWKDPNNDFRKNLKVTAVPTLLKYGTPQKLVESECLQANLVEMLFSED
UniProt Q86TV6: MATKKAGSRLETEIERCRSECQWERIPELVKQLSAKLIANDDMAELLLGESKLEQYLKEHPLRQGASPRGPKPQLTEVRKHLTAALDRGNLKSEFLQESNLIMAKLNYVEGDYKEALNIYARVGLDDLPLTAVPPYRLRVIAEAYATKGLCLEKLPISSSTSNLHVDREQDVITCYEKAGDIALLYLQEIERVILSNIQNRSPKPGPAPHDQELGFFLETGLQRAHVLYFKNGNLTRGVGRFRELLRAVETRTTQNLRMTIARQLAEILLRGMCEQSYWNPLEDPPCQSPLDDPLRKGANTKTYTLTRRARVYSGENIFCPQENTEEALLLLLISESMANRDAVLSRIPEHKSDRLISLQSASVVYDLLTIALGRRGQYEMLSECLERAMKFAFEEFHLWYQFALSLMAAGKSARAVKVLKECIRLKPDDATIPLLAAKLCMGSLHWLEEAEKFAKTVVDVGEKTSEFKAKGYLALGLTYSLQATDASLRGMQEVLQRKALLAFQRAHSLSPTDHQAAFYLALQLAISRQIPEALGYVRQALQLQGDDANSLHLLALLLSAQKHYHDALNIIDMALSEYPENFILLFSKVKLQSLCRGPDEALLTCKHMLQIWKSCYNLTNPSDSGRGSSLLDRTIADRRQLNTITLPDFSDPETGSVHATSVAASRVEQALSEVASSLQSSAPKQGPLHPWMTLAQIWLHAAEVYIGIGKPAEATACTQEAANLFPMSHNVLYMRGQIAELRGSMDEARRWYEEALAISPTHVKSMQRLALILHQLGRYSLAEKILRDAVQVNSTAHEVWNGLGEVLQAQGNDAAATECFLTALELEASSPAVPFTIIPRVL
UniProt Q8N2K1: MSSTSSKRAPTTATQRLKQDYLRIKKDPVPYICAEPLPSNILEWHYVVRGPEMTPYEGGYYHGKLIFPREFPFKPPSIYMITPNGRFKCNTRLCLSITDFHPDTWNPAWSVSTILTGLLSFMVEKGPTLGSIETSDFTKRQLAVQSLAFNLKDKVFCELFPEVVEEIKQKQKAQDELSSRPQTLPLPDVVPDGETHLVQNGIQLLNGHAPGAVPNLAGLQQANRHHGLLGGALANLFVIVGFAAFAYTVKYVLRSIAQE
UniProt Q9NY65, whole entry, looked up: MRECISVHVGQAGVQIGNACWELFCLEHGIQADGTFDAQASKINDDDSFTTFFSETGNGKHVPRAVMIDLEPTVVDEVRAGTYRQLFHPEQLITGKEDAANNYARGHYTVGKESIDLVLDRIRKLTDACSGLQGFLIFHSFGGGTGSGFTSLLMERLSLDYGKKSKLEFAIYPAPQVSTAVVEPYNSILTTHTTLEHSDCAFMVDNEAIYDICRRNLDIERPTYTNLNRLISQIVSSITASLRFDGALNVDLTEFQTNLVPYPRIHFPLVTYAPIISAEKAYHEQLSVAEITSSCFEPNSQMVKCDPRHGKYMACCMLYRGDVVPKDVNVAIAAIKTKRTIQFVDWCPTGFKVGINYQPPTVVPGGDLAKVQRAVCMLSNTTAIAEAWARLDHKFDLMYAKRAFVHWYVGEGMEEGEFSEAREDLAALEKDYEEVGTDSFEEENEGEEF
UniProt Q6PID6, whole entry, looked up: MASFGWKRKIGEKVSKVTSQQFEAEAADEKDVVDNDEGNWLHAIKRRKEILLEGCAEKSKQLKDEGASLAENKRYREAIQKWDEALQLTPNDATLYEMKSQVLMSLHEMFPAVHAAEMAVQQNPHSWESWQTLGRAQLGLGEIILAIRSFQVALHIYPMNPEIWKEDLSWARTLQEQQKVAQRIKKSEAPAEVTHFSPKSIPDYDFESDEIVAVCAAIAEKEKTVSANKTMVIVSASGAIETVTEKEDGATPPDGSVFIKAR
UniProt Q7Z3V4: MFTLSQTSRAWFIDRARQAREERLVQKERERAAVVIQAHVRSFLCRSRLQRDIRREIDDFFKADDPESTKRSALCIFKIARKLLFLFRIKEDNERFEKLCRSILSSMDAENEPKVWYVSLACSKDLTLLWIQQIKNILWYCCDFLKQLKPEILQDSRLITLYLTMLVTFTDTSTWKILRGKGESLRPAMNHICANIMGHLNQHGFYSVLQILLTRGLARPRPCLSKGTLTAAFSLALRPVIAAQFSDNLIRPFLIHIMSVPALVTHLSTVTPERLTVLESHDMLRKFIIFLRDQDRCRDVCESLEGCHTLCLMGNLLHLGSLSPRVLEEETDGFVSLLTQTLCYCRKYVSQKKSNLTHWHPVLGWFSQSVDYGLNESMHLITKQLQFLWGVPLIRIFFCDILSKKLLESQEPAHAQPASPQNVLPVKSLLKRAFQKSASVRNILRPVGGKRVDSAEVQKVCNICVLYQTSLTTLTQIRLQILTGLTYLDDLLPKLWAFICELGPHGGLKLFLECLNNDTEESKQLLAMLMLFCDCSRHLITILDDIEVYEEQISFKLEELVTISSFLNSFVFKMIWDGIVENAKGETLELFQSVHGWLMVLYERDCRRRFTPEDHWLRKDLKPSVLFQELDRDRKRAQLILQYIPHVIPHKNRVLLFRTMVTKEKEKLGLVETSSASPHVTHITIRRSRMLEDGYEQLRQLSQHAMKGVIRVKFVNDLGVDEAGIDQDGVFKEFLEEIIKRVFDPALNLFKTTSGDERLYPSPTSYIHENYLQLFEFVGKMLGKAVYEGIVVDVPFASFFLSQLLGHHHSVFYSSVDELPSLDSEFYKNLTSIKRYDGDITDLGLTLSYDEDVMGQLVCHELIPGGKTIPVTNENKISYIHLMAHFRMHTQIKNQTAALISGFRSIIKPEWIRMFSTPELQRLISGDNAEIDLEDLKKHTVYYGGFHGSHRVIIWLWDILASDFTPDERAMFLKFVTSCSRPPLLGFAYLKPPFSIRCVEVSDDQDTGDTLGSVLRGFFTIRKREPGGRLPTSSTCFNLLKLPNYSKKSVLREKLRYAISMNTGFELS
UniProt Q86VQ3: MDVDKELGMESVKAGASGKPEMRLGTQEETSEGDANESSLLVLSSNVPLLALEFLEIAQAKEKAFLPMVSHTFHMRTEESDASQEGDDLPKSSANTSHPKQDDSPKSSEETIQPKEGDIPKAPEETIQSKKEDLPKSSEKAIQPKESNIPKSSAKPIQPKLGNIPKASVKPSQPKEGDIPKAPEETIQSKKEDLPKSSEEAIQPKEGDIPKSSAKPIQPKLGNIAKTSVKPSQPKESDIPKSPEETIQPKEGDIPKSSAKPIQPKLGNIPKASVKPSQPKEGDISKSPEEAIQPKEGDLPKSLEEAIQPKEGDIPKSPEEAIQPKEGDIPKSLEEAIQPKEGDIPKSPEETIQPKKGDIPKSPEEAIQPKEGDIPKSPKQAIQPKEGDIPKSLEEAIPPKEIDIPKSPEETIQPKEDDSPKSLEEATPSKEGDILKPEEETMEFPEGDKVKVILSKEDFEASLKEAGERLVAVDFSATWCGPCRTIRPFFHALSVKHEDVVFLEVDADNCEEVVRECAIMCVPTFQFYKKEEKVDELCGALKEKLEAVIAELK
UniProt Q6PKC3: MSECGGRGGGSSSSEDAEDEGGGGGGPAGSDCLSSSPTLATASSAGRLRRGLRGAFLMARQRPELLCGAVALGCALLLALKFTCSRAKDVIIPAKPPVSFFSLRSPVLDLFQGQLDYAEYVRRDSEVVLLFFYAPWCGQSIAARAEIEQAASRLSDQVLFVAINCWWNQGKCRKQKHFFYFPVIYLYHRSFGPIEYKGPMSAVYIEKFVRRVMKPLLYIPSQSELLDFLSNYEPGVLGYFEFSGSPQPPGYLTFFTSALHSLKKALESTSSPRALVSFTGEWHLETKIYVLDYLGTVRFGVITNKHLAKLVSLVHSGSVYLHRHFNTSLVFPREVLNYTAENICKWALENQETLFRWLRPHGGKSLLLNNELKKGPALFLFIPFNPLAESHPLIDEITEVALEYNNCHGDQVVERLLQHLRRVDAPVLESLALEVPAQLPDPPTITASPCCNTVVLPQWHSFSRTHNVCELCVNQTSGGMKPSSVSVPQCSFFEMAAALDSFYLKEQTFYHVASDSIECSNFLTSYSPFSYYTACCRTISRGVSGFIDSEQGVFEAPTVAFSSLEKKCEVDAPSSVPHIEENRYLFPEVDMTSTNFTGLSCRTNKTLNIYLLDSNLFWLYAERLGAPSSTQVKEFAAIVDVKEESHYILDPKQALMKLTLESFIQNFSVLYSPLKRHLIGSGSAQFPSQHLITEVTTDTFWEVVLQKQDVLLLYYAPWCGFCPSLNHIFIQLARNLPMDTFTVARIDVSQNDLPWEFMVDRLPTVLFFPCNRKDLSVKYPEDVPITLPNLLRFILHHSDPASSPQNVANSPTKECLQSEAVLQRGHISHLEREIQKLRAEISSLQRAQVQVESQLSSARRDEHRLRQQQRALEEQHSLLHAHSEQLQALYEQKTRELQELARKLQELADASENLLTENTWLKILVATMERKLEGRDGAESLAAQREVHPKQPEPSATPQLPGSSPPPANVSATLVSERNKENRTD
UniProt O95857: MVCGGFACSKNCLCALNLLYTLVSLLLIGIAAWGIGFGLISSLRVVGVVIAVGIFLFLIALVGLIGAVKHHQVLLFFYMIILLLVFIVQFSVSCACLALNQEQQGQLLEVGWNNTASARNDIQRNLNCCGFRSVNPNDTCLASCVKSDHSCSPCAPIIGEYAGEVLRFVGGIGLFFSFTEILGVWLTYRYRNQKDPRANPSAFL
UniProt Q9NX01: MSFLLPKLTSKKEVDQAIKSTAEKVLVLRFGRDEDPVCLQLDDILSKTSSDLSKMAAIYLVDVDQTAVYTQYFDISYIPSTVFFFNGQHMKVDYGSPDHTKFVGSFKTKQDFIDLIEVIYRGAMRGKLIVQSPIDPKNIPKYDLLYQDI

Tests used:
Experiment in all cases: log2 fold change, soluble protein after heating vs DMSO (PISA); higher = thermal stabilisation; K562 cells, 10 uM, 30 min; active = over 0.2 and 3.5 SD of the protein, either way, in both replicates (recomputed)
bafetinib = compound: Cc1ccc(NC(=O)c2ccc(CN3CC[C@H](N(C)C)C3)c(C(F)(F)F)c2)cc1Nc1nccc(-c2cncnc2)n1 [bafetinib]
In short: (§1)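 Values are thermal stability changes relative to control samples and are taken from duplicates. They are stated as log2 fold changes. Before quantification by TMTpro 16plex LC-MS/MS with equalised channel sums, K562 cells at 2×10^6 cells/mL were treated with 10 μM compound for 30 min, heated in aliquots for 3 min across 48°C-58°C, pooled, extracted in PBS with 0.5% NP-40 at 4°C, and centrifuged at 21,000xg for 90 min to give the soluble supernatant.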

nilotinib = compound: Cc1cn(-c2cc(NC(=O)c3ccc(C)c(Nc4nccc(-c5cccnc5)n4)c3)cc(C(F)(F)F)c2)cn1 [nilotinib]
In short: as §1

[1] = compound: Cc1nc(Nc2n[nH]c3c2CN(C(=O)N[C@H](CN(C)C)c2ccccc2)C3(C)C)c2sccc2n1
In short: as §1

dasatinib = compound: Cc1nc(Nc2ncc(C(=O)Nc3c(C)cccc3Cl)s2)cc(N2CCN(CCO)CC2)n1 [dasatinib]
In short: as §1

[2] = compound: Cc1ncc(-c2ccnc(Nc3ccc(S(C)(=O)=O)cc3)n2)n1C(C)C
In short: as §1

[3] = compound: Cn1cc(-c2ccc3c(c2)CCN3C(=O)Cc2cccc(C(F)(F)F)c2)c2c(N)ncnc21
In short: as §1

[4] = compound: Cn1cc(-c2ccc3nnc(C(F)(F)c4ccc5ncccc5c4)n3n2)cn1
In short: as §1

tipifarnib = compound: Cn1cncc1[C@@](N)(c1ccc(Cl)cc1)c1ccc2c(c1)c(-c1cccc(Cl)c1)cc(=O)n2C [tipifarnib]
In short: as §1

mubritinib = compound: FC(F)(F)c1ccc(/C=C/c2nc(COc3ccc(CCCCn4ccnn4)cc3)co2)cc1 [mubritinib]
In short: as §1

[5] = compound: NC(=O)Nc1cc(-c2cccc(F)c2)sc1C(=O)N[C@H]1CCCNC1
In short: as §1

[6] = compound: NC(=O)c1cnc(N[C@@H]2CCCC[C@@H]2N)nc1Nc1cccc(-n2nccn2)c1
In short: as §1

[7] = compound: NC1(c2ccc(-c3nc4ccn5c(=O)[nH]nc5c4cc3-c3ccccc3)cc2)CCC1
In short: as §1

[8] = compound: NCC(=O)Nc1ccc(-n2nc(C(F)(F)F)cc2-c2ccc3c(ccc4ccccc43)c2)cc1
In short: as §1

entinostat = compound: Nc1ccccc1NC(=O)c1ccc(CNC(=O)OCc2cccnc2)cc1 [entinostat]
In short: as §1

citarinostat = compound: O=C(CCCCCCNC(=O)c1cnc(N(c2ccccc2)c2ccccc2Cl)nc1)NO [citarinostat]
In short: as §1

silmitasertib = compound: O=C(O)c1ccc2c(c1)nc(Nc1cccc(Cl)c1)c1ccncc12 [silmitasertib]
In short: as §1

[9] = compound: O=C1NC(=O)C(c2cnc3ccccn23)=C1c1cn2c3c(cc(F)cc13)CN(C(=O)N1CCCCC1)CC2
In short: as §1

[10] = compound: c1cc(OCCN2CCCCC2)cc(-c2n[nH]c3ccc(-c4nnc[nH]4)cc23)c1
In short: as §1

[11] = compound: Cc1cccc(CC(=O)N2CCc3c2ccc(-c2cn(C)c4ncnc(N)c24)c3F)n1
In short: as §1

vorinostat = compound: O=C(CCCCCCC(=O)Nc1ccccc1)NO [vorinostat]
In short: as §1

Measured: log2 fold change

TTI2 (UniProt Q6NXR4)
inactive: bafetinib 0.06 | nilotinib -0.028 | [1] -0.068 | dasatinib -0.005 | [2] 0.077 | [3] -0.017 | [4] -0.007 | tipifarnib -0.059 | mubritinib -0.063 | [5] 0.024 | [6] -0.038 | [7] 0.016 | [8] -0.074 | entinostat -0.004 | citarinostat -0.035 | silmitasertib -0.047 | [9] 0.059 | [10] -0.023

TUBB2B (UniProt Q9BVA1)
inactive: bafetinib -0.093 | [11] 0.014 | nilotinib 0.031 | [1] 0.002 | dasatinib 0.067 | [2] 0.019 | [3] -0.144 | [4] -0.031 | tipifarnib -0.008 | [5] -0.101 | [6] -0.027 | [8] -0.017 | entinostat -0.039 | vorinostat 0.063 | citarinostat -0.003 | [10] -0.04

TTMP isoform 3 (UniProt Q5BVD1)
inactive: bafetinib 0.023 | [11] -0.033 | nilotinib -0.062 | [1] -0.024 | dasatinib 0.138 | [2] 0.007 | [3] 0.111 | [4] -0.045 | mubritinib 0.109 | [5] 0.042 | [6] -0.154 | [7] -0.016 | entinostat -0.161 | vorinostat 0.132 | silmitasertib -0.025 | [9] -0.426

2 entries picked at random from the list so far, as already listed:
TUBB2B (UniProt Q9BVA1)
inactive: bafetinib -0.093 | [11] 0.014 | nilotinib 0.031 | [1] 0.002 | dasatinib 0.067 | [2] 0.019 | [3] -0.144 | [4] -0.031 | tipifarnib -0.008 | [5] -0.101 | [6] -0.027 | [8] -0.017 | entinostat -0.039 | vorinostat 0.063 | citarinostat -0.003 | [10] -0.04

TTMP isoform 3 (UniProt Q5BVD1)
inactive: bafetinib 0.023 | [11] -0.033 | nilotinib -0.062 | [1] -0.024 | dasatinib 0.138 | [2] 0.007 | [3] 0.111 | [4] -0.045 | mubritinib 0.109 | [5] 0.042 | [6] -0.154 | [7] -0.016 | entinostat -0.161 | vorinostat 0.132 | silmitasertib -0.025 | [9] -0.426

(further entries)

TXNDC17 (UniProt Q9BRA2)
inactive: bafetinib -0.071 | [11] -0.049 | nilotinib -0.02 | [1] -0.04 | dasatinib -0.006 | [2] 0.015 | [3] 0.03 | [4] 0.027 | tipifarnib 0 | mubritinib 0.007 | [5] 0.02 | [6] 0.023 | [7] -0.002 | [8] 0.004 | entinostat 0.027 | vorinostat 0.011 | citarinostat 0.038 | silmitasertib -0.045 | [9] -0.017 | [10] -0.005

TTC7B isoform 2 (UniProt Q86TV6)
inactive: bafetinib -0.201 | [11] -0.021 | nilotinib 0.052 | [1] -0.118 | dasatinib -0.09 | [2] -0.023 | [3] -0.037 | [4] -0.07 | tipifarnib 0.126 | [5] -0.262 | [6] -0.039 | [8] -0.379 | entinostat 0 | vorinostat 0.031 | citarinostat -0.095 | [10] -0.18

UBE2J2 isoform 3 (UniProt Q8N2K1)
inactive: bafetinib 0.037 | [11] -0.12 | dasatinib -0.154 | [3] 0.013 | tipifarnib 0.041 | [5] -0.072 | [6] 0.028 | [8] 0.213 | entinostat -0.067 | vorinostat 0.156 | citarinostat 0.1 | [9] -0.299 | [10] -0.039

UBA52 (UniProt P62987)
inactive: bafetinib 0.285 | [11] -0.001 | [3] -0.343 | [4] -0.16 | tipifarnib 0.247 | mubritinib -0.115 | [5] 0.067 | [6] 0.158 | [7] 0.366 | [8] 0.178 | entinostat 0 | vorinostat 0.029 | citarinostat -0.112 | silmitasertib 0.158 | [9] 0.246 | [10] -0.216

TTN isoform 12 (UniProt Q8WZ42)
inactive: bafetinib -0.239 | [11] -0.274 | nilotinib 0.001 | [1] 0.097 | dasatinib 0.138 | [2] -0.047 | [3] -0.012 | [4] 0.103 | tipifarnib 0.159 | mubritinib 0.034 | [5] -0.464 | [6] -0.179 | [7] 0.08 | [8] -0.23 | entinostat -0.18 | vorinostat 0.106 | citarinostat -0.108 | silmitasertib -0.042 | [9] -0.146 | [10] -0.163

TUBB4A (UniProt M0QYM7)
inactive: bafetinib -0.043 | [11] -0.1 | nilotinib -0.461 | [1] 0.157 | dasatinib 0.039 | [2] -0.07 | [3] -0.075 | tipifarnib 0.172 | mubritinib 0.086 | [5] -0.199 | [6] -0.313 | [7] -0.566 | [8] -0.245 | entinostat -0.127 | vorinostat -0.116 | citarinostat -0.153 | silmitasertib 0.156 | [9] 0.068 | [10] -0.106

TUBA8 (UniProt Q9NY65)
inactive: bafetinib 0.475 | [11] -0.102 | nilotinib -0.197 | [1] 0.3 | [2] -0.093 | [3] -0.822 | [4] -0.267 | tipifarnib 0.165 | mubritinib -0.023 | [5] 0.08 | [6] -0.068 | [7] 0.109 | [8] 0.149 | entinostat -0.111 | vorinostat 0.018 | citarinostat -0.017 | silmitasertib 0.123 | [9] 0.405 | [10] -0.261

TTC33 (UniProt Q6PID6)
inactive: bafetinib 0.049 | [11] 0.181 | dasatinib 0.043 | [3] -0.084 | [4] -0.069 | tipifarnib -0.03 | mubritinib 0.113 | [5] -0.1 | [6] -0.158 | [7] -0.197 | [8] -0.133 | entinostat -0.123 | vorinostat -0.072 | citarinostat -0.038 | silmitasertib 0.151 | [9] -0.08 | [10] 0.003

UBE3B (UniProt Q7Z3V4)
inactive: bafetinib -0.134 | nilotinib 0.072 | [1] 0.03 | dasatinib -0.028 | [2] 0.116 | [3] -0.062 | [4] 0.103 | tipifarnib -0.112 | [5] 0.034 | [6] -0.043 | entinostat -0.046 | [9] -0.037

TXNDC2 (UniProt Q86VQ3)
inactive: bafetinib -0.038 | nilotinib -0.226 | [1] -0.144 | dasatinib -0.019 | [2] 0.068 | [4] -0.034 | tipifarnib 0.008 | [5] 0.011 | [6] -0.228 | [8] 0.009 | entinostat -0.151 | citarinostat -0.069 | [10] 0

TUBB6 (UniProt K7ES63)
inactive: bafetinib 0.059 | nilotinib -0.075 | [1] -0.019 | dasatinib 0.055 | [2] -0.042 | [3] -0.295 | [4] -0.072 | tipifarnib 0.104 | mubritinib -0.009 | [5] -0.058 | [6] -0.158 | [7] -0.272 | [8] -0.117 | entinostat -0.09 | citarinostat 0.001 | silmitasertib 0.136 | [9] 0.01 | [10] -0.089

TXNDC11 (UniProt Q6PKC3)
inactive: bafetinib -0.101 | [11] 0.013 | dasatinib 0.045 | [3] 0.056 | [4] 0.038 | tipifarnib -0.156 | mubritinib 0.035 | [5] -0.083 | [6] 0.075 | [7] -0.067 | [8] 0.11 | entinostat -0.018 | vorinostat -0.031 | citarinostat 0.051 | silmitasertib -0.002 | [9] 0.112 | [10] -0.003

TSPAN13 (UniProt O95857)
inactive: bafetinib -0.101 | [11] 0.014 | nilotinib 0.056 | [1] -0.035 | dasatinib -0.163 | [2] -0.095 | [3] -0.038 | [4] 0.095 | tipifarnib -0.008 | mubritinib 0.226 | [5] -0.091 | [7] -0.125 | [8] 0.03 | entinostat -0.109 | vorinostat 0.002 | silmitasertib 0 | [9] -0.166

TUBGCP5 (UniProt Q96RT8)
inactive: bafetinib -0.216 | [11] -0.143 | nilotinib 0.168 | [1] 0.054 | [2] -0.131 | [3] 0.058 | tipifarnib -0.01 | vorinostat 0.045 | citarinostat -0.082 | [9] 0.071 | [10] -0.017

TXNL4B (UniProt Q9NX01)
active: [8] 0.709
inactive: bafetinib -0.1 | [11] 0.005 | nilotinib 0.003 | [1] -0.041 | dasatinib -0.042 | [2] 0.01 | [3] 0.007 | [4] 0.028 | tipifarnib 0.008 | mubritinib 0.17 | [5] 0.098 | [6] -0.112 | [7] -0.035 | entinostat -0.024 | vorinostat 0.02 | citarinostat 0.029 | silmitasertib 0.118 | [10] 0.117
